Measurements: patent US20040137518A1, “CRYSTALLIZED PPARa LIGAND BINDING DOMAIN POLYPEPTIDE AND SCREENING METHODS EMPLOYING SAME” (priority 2003, published 2004)
For at least one compound, name, drawing or mass did not settle the structure.

Target: T1, hPPARα (Homo sapiens, UniProt Q07869)
T1 sequence (Q07869 1-468): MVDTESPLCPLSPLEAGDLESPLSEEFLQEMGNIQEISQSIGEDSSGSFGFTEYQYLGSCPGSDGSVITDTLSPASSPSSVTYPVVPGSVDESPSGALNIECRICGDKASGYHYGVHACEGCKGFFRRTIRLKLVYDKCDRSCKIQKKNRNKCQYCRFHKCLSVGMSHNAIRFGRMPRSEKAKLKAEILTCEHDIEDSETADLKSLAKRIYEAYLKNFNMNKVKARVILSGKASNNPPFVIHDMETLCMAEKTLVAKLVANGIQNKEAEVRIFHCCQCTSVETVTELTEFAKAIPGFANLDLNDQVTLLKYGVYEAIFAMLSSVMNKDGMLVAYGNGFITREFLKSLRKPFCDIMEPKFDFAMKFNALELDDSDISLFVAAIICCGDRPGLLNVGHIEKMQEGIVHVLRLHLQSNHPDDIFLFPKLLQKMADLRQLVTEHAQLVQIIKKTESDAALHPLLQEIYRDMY
Assay: hPPARα agonist activity (stated in text, no method given)
Conditions: statement in words, no data given

Cc1nc(-c2ccc(C(F)(F)F)cc2)sc1C(=O)NCc1ccc(OC(C)(C)C(=O)O)cc1 [Compound 1, 2-methyl-2-[4-{[(4-methyl-2-[4-trifluoromethylphenyl]-thiazol-5-ylcarbonyl)amino]methyl}phenoxy]propionic acid]
activity at hPPARα (agonist): agonist
